Results are given in words; binding and its absence hold for the method and conditions named. Binding seen in cells or lysates may run through a third protein. Some entries that bind do so weakly or less than the wild type.
Target: Endophilin A1 (mouse (endogenous in hippocampal neurons)) (UniProt Q62420)
Assay: co-IP; anti-Endophilin 1 guinea pig polyclonal antibody on Dynabeads; lysates of Itsn1 KO mouse hippocampal cultures infected with lentiviral rescue constructs (DIV 7, lysed DIV 14); lysis buffer 20 mM HEPES pH 7.4, 50 mM KCl, 2 mM MgCl2, 1% Triton X-100; blot with anti-Itsn1

The chains behind the UniProt entries cited, without tags or fusion partners.
UniProt Q62420: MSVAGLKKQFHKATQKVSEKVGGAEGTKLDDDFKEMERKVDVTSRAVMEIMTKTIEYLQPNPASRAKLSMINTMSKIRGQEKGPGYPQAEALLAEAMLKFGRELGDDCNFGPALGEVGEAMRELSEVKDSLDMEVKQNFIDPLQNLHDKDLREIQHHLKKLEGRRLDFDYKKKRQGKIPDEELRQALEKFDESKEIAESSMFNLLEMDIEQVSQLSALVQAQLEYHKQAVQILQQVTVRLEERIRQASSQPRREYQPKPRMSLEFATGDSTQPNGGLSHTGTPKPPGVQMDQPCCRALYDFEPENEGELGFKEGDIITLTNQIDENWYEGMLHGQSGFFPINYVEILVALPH
UniProt Q15811: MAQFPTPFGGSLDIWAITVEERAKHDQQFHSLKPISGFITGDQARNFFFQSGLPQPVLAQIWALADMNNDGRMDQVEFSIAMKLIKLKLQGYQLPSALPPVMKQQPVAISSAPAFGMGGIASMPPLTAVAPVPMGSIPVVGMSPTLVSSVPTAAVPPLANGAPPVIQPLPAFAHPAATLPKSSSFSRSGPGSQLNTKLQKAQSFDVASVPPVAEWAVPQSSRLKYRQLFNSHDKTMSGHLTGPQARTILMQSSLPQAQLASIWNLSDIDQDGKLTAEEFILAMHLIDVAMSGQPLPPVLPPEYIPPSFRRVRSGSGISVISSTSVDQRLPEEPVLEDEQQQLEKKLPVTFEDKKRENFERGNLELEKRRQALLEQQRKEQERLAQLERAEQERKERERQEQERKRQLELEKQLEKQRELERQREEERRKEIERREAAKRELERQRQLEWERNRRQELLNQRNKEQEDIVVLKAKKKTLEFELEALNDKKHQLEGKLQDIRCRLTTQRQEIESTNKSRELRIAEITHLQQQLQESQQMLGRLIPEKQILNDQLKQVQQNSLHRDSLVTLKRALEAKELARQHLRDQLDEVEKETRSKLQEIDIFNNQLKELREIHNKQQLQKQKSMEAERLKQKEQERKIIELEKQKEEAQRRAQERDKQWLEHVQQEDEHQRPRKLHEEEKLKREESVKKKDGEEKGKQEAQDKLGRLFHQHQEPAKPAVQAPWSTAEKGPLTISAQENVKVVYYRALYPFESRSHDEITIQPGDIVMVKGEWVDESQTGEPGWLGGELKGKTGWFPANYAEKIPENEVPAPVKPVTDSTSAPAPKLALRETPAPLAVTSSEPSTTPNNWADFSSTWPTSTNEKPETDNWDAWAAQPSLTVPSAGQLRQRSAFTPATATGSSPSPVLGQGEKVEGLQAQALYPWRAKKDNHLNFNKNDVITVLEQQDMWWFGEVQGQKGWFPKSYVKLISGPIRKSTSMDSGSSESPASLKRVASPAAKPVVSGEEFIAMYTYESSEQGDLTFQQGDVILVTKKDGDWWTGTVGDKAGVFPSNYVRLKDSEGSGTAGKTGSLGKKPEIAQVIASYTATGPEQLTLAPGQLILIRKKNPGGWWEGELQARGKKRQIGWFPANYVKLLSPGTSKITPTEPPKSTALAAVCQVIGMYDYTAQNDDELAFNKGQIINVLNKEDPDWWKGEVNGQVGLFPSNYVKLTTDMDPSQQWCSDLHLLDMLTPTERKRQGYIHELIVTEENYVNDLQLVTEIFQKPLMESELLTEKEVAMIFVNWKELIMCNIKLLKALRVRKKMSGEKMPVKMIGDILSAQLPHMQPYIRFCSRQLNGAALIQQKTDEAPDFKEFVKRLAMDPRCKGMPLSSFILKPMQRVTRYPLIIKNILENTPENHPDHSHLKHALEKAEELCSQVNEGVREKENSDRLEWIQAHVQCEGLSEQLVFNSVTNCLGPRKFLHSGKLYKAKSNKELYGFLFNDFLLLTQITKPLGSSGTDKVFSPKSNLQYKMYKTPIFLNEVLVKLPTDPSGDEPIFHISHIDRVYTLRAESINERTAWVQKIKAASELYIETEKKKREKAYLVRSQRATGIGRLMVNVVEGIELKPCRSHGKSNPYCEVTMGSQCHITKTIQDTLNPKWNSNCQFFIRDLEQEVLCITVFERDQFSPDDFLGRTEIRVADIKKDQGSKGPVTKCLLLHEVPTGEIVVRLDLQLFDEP

- binding: binds
Substance: Intersectin-1 Long (L), full length, wild-type rescue construct (from UniProt Q15811 1-1721)

Reference: publication doi:10.1101/2023.08.22.554276
